Experimental data: article PMC11396530
No constants are given. Whether binding was seen depends on the method and setting. Binding seen in cells or lysates may run through a third protein. Some results given as binding are weak or reduced against the parent protein; the word gives no strength. For some assays here: Where a sequence is shown, tags or fusion partners need not be part of it.

Sequences of proteins named here, by UniProt entry; tags and fusion partners are left off. Residues count along the entry.
UniProt Q14694: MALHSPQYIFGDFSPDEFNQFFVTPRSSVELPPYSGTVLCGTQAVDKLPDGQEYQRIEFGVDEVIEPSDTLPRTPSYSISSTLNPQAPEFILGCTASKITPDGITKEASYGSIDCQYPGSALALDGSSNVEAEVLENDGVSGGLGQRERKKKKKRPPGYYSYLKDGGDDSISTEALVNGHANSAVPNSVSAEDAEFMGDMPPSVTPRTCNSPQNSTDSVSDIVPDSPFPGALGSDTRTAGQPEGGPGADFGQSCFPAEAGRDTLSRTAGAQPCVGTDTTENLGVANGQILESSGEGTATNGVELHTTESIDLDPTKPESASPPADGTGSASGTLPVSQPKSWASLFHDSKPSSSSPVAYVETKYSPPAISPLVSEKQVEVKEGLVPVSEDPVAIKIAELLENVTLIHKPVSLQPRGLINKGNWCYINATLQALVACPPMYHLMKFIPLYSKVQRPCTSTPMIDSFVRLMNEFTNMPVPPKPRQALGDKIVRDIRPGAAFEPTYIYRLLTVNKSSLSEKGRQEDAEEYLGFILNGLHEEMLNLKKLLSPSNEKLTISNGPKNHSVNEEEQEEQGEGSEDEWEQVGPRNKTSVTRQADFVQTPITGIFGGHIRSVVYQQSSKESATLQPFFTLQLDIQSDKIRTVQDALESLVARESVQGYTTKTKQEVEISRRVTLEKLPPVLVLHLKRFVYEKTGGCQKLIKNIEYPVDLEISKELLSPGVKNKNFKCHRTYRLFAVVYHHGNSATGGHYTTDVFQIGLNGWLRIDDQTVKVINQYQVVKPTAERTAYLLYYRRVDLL
UniProt P11021, residues 19-654: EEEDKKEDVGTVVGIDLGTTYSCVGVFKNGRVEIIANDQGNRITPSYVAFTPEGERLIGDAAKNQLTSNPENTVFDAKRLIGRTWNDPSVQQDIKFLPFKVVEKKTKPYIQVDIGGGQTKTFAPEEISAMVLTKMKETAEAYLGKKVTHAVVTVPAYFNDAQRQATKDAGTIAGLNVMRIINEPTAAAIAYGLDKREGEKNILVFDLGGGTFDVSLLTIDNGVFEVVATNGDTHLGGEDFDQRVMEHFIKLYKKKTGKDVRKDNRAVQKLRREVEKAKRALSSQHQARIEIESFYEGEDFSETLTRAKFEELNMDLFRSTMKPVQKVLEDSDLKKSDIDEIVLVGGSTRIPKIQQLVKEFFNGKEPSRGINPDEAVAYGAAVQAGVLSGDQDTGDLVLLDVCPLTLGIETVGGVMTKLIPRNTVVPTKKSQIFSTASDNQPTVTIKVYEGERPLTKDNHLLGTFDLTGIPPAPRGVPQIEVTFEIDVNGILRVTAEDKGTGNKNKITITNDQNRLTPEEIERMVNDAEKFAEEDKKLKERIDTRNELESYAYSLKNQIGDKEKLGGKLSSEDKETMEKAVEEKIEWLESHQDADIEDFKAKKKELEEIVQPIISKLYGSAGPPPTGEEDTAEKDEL

Tests used:
[1] = target: USP10, endogenous (human (endogenous in DLD-1, RKO and HCT 116)) (UniProt Q14694); assay: co-IP; endogenous proteins in DLD-1 and RKO cell lysates, Protein A/G magnetic beads, 12 h at 4 °C, Western blot; for USP10 with GRP78 also after GCS1 knock-down (DLD-1) or GCS1 overexpression (HCT 116)
[2] = target: T1, glucosidase I (GCS1), endogenous (human (endogenous in DLD-1 and RKO)) (UniProt Q13724); assay: as above
T1 sequence: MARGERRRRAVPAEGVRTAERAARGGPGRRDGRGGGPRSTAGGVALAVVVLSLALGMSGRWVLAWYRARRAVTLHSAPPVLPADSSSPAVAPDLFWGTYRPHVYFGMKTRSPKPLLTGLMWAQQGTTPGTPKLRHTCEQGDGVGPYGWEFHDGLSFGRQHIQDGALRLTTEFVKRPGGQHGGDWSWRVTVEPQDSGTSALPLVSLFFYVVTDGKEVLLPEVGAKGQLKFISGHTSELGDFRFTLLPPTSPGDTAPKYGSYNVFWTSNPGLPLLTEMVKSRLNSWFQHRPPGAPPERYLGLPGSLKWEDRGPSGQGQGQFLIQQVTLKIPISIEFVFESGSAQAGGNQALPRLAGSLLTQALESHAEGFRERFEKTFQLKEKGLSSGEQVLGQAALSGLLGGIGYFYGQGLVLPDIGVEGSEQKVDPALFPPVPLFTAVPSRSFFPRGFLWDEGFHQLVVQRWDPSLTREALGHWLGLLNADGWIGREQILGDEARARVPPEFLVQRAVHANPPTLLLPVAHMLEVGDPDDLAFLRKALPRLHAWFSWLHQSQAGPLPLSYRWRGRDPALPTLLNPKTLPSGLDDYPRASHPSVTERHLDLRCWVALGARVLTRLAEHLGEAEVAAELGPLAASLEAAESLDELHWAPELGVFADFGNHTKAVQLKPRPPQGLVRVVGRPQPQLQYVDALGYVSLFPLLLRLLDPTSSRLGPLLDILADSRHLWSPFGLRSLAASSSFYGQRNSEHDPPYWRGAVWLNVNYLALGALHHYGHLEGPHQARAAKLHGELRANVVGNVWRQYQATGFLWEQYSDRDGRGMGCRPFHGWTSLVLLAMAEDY

[3] = target: T2, Flag-GCS1-C (UniProt Q13724); assay: co-IP; HEK293T cells transfected with tagged plasmids (Flag-GCS1-FL/N/C, Myc-GRP78, USP10), lysate, Western blot
T2 sequence: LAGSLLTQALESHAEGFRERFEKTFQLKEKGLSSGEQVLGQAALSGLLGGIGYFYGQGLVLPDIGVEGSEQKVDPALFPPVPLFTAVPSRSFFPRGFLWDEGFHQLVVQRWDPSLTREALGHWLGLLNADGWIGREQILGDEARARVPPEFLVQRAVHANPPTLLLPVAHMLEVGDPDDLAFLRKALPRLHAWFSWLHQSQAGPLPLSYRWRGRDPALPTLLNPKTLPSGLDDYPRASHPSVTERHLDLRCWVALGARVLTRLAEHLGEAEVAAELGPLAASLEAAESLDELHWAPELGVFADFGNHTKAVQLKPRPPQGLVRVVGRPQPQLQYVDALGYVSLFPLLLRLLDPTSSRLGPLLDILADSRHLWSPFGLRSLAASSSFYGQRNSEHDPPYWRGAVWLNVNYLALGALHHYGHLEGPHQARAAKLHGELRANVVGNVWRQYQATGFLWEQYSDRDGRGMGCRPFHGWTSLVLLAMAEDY

[4] = target: T3, Flag-GCS1-FL (UniProt Q13724); assay: as above
T3 sequence: T1 sequence

[5] = target: His-USP10 (UniProt Q14694); assay: as above

binding [1] | binding [2] | binding [3] | binding [4] | binding [5] | Substance
binds | binds |  |  |  | GRP78, endogenous (from UniProt P11021 19-654)
 |  | binds | binds | binds | Myc-GRP78 (from UniProt P11021 19-654)
